This is an account of results in article PMC8248824 (Acta Crystallographica. Section F, Structural Biology …, 2021).

Results are given in words; binding and its absence hold for the method and conditions named. Tags and fused reporters may be left off the sequences shown.

The target in this assay is DARPin D5 from the pQiq_FLAG expression vector (N-terminal His6 tag, C-terminal FLAG tag). The assay is described as follows: SEC; analytical size-exclusion chromatography, AKTAmicro, Superdex 200 Increase 5/150 GL, of the purified DARPins alone; both purified. In general terms: Size exclusion chromatography separates by hydrodynamic size, large species first.

B1: DARPin D5 from the pQiq_FLAG expression vector (N-terminal His6 tag, C-terminal FLAG tag) (designed binder)
chain: DLGKKLLEAARAGQDDEVRILMANGADVNAFDHNGSTPLHLAAAIGHLEIVEVLLKYGADVNAEDNWGNTPLHQAAWVGHLEIVEVLLKNGADVNAQDKFGKTAFDISIDNGNEDLAEILQKLN
notes: DARPin D5 itself, as printed within the crystallisation construct (from Asp13); source: E. coli XL1 Blue, purified (HisPur Cobalt Spin Plates)
In the case of B1, the binding result is on record as “no binding”.
